According to patent publication US20140271765A1 (priority 2013, published 2014):

Tests used:
[1] = Urinary excretion, plasma AUC and renal clearance after implants (Example 5); settings: norbuprenorphine, individual subjects
[2] = plasma norbuprenorphine; 2 implants; individual subjects

norbuprenorphine
Plasma AUC ([1]; 2 implants, 0-24 hours): 24,287 pg/mL*h and 27,032 pg/mL*h and 24,987 pg/mL*h and 18,773 pg/mL*h and 24,379 pg/mL*h and 49,780 pg/mL*h
Plasma AUC ([1]; 2 implants, 24-48 hours): 46,200 pg/mL*h and 24,618 pg/mL*h and 25,638 pg/mL*h and 12,846 pg/mL*h
Plasma AUC ([1]; 4 implants, 0-24 hours): 87,440 pg/mL*h and 85,055 pg/mL*h and 74,000 pg/mL*h and 41,040 pg/mL*h and 23,182 pg/mL*h
Plasma AUC ([1]; 4 implants, 24-48 hours): 76,920 pg/mL*h and 60,930 pg/mL*h and 70,290 pg/mL*h and 29,250 pg/mL*h and 22,989 pg/mL*h
Cave Day 21 to removal [2]: 109.9, 104.1, 100.0, 103.8, 76.8, 239.1 pg/mL

Some compounds may have been tested in ways that are not shown here. A number of entries come with more than one value. This is not the full list of results. An entry can have further records. The values listed for one entry differ, and nothing given here explains why; some may be repeats, others may stem from another dose, organism or construct than stated.
